Measurements published in patent US20070218466A1.
No constants are given. Whether binding was seen depends on the method and setting. Some entries that bind do so weakly or less than the wild type.

Amino acid sequences for entries named in this document (tags omitted).
UniProt P09310: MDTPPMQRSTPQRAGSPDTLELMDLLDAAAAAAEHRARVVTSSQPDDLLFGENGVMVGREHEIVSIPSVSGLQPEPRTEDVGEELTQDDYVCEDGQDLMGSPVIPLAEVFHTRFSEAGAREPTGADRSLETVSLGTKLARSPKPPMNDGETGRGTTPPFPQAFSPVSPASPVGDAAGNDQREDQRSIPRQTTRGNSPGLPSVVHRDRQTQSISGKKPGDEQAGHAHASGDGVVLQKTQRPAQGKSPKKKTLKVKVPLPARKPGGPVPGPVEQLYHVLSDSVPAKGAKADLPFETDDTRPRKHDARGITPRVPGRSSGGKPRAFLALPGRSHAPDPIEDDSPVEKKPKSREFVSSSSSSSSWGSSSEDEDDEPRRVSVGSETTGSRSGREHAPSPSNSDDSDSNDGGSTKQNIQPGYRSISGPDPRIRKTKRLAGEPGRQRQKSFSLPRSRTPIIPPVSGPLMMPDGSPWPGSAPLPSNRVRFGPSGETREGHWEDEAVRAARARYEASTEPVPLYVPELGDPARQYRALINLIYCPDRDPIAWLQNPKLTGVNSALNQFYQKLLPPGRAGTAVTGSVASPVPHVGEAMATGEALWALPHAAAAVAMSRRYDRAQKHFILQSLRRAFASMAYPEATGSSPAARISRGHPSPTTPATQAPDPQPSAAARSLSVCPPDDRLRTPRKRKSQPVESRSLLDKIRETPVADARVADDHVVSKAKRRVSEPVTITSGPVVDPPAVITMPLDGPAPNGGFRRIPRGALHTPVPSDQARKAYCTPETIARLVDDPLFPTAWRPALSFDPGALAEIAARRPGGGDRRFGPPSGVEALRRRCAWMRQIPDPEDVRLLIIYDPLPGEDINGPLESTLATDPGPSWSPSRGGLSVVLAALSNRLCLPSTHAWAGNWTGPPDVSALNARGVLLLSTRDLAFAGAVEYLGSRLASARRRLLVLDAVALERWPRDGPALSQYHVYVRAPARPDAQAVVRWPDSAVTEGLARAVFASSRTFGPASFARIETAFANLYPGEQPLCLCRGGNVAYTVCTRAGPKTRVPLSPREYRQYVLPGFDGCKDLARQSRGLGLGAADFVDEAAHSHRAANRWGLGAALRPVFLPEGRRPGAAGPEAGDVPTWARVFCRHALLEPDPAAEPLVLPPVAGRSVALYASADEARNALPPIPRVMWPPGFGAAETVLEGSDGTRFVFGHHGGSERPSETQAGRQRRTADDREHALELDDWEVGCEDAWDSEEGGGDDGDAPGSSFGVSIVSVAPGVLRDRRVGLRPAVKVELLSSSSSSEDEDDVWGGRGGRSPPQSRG

Biological target: T1, full-length MxA protein (human) (UniProt P20591)
T1 sequence (looked up): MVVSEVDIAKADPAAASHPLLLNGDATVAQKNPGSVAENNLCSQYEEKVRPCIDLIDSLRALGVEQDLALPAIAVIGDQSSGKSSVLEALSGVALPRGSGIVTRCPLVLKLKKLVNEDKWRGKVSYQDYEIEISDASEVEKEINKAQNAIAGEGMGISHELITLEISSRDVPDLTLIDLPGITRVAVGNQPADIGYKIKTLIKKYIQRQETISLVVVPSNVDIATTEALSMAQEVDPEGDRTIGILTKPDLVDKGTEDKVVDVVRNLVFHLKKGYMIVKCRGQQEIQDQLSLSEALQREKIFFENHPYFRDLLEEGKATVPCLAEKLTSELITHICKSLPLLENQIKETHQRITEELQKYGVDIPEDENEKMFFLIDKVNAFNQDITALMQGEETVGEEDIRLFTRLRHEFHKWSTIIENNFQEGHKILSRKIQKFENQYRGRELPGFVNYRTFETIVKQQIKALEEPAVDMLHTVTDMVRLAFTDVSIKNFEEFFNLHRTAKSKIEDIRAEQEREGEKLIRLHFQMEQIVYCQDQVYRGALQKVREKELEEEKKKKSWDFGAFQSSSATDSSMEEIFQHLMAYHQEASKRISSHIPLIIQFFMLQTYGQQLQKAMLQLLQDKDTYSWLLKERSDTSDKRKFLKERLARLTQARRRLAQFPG
Test: confocal microscopy co-localisation in 293T cells cotransfected with MxA and IE62

“VZV encoded protein IE62 (from UniProt P09310 1-1310)” was tested, and the binding was “binds”.
